Data published in paper PMC8384158.
These are yes or no findings as the source states them, for the method shown. Binding seen in cells or lysates may run through a third protein. Some results given as binding are weak or reduced against the parent protein; the word gives no strength.

Legend:
[1] = target: T1, Bag-1 (endogenous) (human (endogenous in MCF-7, MCF-12A and breast tissue)) (UniProt Q99933); assay: co-IP; untransfected MCF-7 and MCF-12A cells; 250 μg extract with monoclonal α-Bag-1 on Dynabeads Protein G overnight at 4°C; uncoupled beads as control; immunoblot
T1 sequence: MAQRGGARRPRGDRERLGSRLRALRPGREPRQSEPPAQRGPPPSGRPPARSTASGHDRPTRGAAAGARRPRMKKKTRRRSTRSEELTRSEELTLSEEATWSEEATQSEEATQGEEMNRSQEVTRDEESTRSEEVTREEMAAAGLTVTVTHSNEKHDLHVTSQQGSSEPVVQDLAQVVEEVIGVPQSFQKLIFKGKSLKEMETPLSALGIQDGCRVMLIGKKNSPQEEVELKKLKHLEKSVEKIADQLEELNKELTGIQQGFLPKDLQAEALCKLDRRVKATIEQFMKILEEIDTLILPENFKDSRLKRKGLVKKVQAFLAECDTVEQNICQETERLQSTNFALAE

TAP–Bag-1L (human) = target: T2, TAP–Bag-1L (human) (UniProt Q99933); assay: pull-down; MCF-7 cells transfected with TAP–Bag-1 isoform; 500 μg lysate on IgG Sepharose overnight at 4°C, released with AcTEV protease; bound fraction immunoblotted
T2 sequence: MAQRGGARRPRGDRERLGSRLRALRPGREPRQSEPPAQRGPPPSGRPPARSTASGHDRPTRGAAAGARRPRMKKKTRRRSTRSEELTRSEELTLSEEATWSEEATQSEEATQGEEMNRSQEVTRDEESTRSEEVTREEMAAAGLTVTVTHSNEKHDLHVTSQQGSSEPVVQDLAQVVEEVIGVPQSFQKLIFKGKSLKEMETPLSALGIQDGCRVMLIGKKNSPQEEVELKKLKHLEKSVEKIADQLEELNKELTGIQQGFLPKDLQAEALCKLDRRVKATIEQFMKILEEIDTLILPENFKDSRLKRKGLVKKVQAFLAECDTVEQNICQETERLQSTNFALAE

TAP–Bag-1S (human) = target: T3, TAP–Bag-1S (human) (UniProt Q99933); assay: as above
T3 sequence: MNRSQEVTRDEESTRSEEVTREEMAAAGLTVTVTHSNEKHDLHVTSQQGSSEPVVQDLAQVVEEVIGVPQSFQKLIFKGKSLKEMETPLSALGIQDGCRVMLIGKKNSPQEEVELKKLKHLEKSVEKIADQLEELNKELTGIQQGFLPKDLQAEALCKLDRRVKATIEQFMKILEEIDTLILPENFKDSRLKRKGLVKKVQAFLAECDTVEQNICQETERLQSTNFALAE

Measured: binding

B1: Calnexin (protein, UniProt P27824 21-592)
chain: HDGHDDDVIDIEDDLDDVIEEVEDSKPDTTAPPSSPKVTYKAPVPTGEVYFADSFDRGTLSGWILSKAKKDDTDDEIAKYDGKWEVEEMKESKLPGDKGLVLMSRAKHHAISAKLNKPFLFDTKPLIVQYEVNFQNGIECGGAYVKLLSKTPELNLDQFHDKTPYTIMFGPDKCGEDYKLHFIFRHKNPKTGIYEEKHAKRPDADLKTYFTDKKTHLYTLILNPDNSFEILVDQSVVNSGNLLNDMTPPVNPSREIEDPEDRKPEDWDERPKIPDPEAVKPDDWDEDAPAKIPDEEATKPEGWLDDEPEYVPDPDAEKPEDWDEDMDGEWEAPQIANPRCESAPGCGVWQRPVIDNPNYKGKWKPPMIDNPSYQGIWKPRKIPNPDFFEDLEPFRMTPFSAIGLELWSMTSDIFFDNFIICADRRIVDDWANDGWGLKKAADGAAEPGVVGQMIEAAEERPWLWVVYILTVALPVFLVILFCCSGKKQTSGMEYKKTDAPQPDVKEEEEEKEEEKDKGDEEEEGEEKLEEKQKSDAEEDGGTVSQEEEDRKPKAEEDEILNRSPRNRKPRRE
binds: all assays above
